Test results as given in article PMC12331601.
Read-outs that look alike come from different tables or passages of the source. Results are given in words; binding and its absence hold for the method and conditions named. In cells and extracts the contact can be indirect. Here binding means that the protein was enriched with, or labelled near, the bait; the list need not be complete. For part of these data: No binding means not detected with the bait.

Protein sequences, listed by entry. Tags and fused reporters are not part of them.
UniProt Q9Y6M1: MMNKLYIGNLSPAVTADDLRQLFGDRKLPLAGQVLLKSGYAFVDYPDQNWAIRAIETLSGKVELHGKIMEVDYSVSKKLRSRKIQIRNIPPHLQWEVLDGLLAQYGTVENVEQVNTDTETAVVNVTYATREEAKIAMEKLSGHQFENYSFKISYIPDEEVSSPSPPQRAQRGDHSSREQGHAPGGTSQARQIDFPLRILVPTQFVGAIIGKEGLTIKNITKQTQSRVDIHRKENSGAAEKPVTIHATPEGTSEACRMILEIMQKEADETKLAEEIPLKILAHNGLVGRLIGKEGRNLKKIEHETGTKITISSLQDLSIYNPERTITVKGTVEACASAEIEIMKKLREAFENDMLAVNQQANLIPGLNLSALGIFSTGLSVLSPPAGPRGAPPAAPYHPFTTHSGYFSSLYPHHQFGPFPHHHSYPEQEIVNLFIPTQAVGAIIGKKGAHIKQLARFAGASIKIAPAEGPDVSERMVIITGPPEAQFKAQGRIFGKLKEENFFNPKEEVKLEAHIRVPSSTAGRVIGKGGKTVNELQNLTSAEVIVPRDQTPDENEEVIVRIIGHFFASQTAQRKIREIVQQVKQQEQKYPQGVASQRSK
UniProt O00425: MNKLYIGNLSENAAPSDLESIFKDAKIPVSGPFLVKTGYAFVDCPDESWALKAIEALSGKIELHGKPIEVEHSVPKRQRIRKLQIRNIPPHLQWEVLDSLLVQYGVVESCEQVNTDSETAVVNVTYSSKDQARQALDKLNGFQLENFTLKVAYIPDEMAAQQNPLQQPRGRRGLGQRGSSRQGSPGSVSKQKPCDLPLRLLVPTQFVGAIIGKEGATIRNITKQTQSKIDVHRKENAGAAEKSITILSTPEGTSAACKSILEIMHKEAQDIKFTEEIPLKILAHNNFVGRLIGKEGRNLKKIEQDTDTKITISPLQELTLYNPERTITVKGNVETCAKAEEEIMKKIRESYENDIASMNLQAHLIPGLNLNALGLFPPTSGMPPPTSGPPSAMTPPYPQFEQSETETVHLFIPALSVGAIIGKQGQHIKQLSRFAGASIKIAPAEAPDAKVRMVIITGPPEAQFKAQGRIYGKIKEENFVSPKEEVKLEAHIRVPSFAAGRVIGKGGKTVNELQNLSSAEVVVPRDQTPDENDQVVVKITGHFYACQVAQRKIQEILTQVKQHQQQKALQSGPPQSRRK

T1: BAG5 (UniProt Q9UL15)
T1 sequence: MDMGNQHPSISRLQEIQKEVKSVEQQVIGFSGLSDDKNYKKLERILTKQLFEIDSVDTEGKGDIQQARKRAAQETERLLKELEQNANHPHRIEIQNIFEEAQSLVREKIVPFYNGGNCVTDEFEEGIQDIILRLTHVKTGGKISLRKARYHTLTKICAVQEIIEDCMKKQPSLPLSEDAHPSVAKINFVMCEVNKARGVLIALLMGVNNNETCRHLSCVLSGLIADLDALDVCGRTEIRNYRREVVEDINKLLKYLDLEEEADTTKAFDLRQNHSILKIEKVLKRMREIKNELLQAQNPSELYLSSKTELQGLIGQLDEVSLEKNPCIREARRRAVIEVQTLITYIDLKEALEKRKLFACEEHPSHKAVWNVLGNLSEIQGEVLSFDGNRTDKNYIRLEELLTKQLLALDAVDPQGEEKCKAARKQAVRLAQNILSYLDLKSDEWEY


Experiments:
BAG5 [1] = target: T1, BAG5; assay: affinity purification with mass spectrometry; BAG5 immunocomplex on anti-Flag magnetic beads from NP-40 lysates (50 mM Tris-HCl pH 7.4, 150 mM NaCl) of A549 (and BEAS-2B) cells, overnight at 4 °C, four washes; SDS-PAGE and LC-MS/MS
BAG5 [2] = target: T1, BAG5; assay: as above; remark: listed apart in the source

Molecule | binding (BAG5 [1]) | binding (BAG5 [2])
IGF2BP2 (from UniProt Q9Y6M1 1-599) | binds | –
IGF2BP3 (from UniProt O00425 1-579) | binds | –
GLUT3 (protein, UniProt P11169 1-496) MGTQKVTPALIFAITVATIGSFQFGYNTGVINAPEKIIKEFINKTLTDKGNAPPSEVLLTSLWSLSVAIFSVGGMIGSFSVGLFVNRFGRRNSMLIVNLLAVTGGCFMGLCKVAKSVEMLILGRLVIGLFCGLCTGFVPMYIGEISPTALRGAFGTLNQLGIVVGILVAQIFGLEFILGSEELWPLLLGFTILPAILQSAALPFCPESPRFLLINRKEEENAKQILQRLWGTQDVSQDIQEMKDESARMSQEKQVTVLELFRVSSYRQPIIISIVLQLSQQLSGINAVFYYSTGIFKDAGVQEPIYATIGAGVVNTIFTVVSLFLVERAGRRTLHMIGLGGMAFCSTLMTVSLLLKDNYNGMSFVCIGAILVFVAFFEIGPGPIPWFIVAELFSQGPRPAAMAVAGCSNWTSNFLVGLLFPSAAHYLGAYVFIIFTGFLITFLAFTFFKVPETRGRTFEDITRAFEGQAHGADRSGKDGVMEMNSIEPAKETTTNV | – | no binding
